PubChem BioAssay AID1259308 | NCATS | 2017

Screen: 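Knock-downs that increase output of a recombinant reporter protein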 (primary screen)
Cells: human HEK293 embryonic kidney cells stably expressing firefly luciferase (HEK-CMV-Luc2-Hygro)
Knock-down reagent: single siRNA against human genes, 0.8 pmol siRNA per well
Duration: 72 h
Measured: 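Reporter luminescence and viable-cell signal on separate replicate plates, given as percent of non-targeting control and median/MAD z-scores, plus per-cell luciferase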
Scale: total luciferase, z-score and total luciferase, % of control: higher = more reporter protein produced
Hit rule: 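Active when the median/MAD z-score for overall luciferase is greater than 3; a gene was taken forward for validation with new siRNAs if at least two of its three siRNAs passed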
Calls: active = raised luciferase; inactive = no rise
In all, the deposit lists about 59,000 reagents; below is a random part of them. About 1,510 of all reagents (2.6%) were called active. 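Calls use total luciferase alone and ignore viability, so some active siRNAs may act by altering cell number.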 Unmarked entries are inactive. Reagents against one gene are numbered here. Not all columns of the deposit are shown.

What did the screen give for RNF25 (GeneID 64320) #1?
total luciferase, z-score: -1.35; total luciferase, % of control: 55.1

For RNF25 (GeneID 64320) #2, what does the deposit list?
total luciferase, z-score: 1.43; total luciferase, % of control: 110

What did the screen give for RNF25 (GeneID 64320) #3?
total luciferase, z-score: 0.795; total luciferase, % of control: 97.7

For TEFM (GeneID 79736) #1, what does the deposit list?
total luciferase, z-score: -0.186; total luciferase, % of control: 78.2

With TEFM (GeneID 79736) #2, what was measured?
total luciferase, z-score: 0.00161; total luciferase, % of control: 81.9

For TEFM (GeneID 79736) #3, what does the deposit list?
total luciferase, z-score: 0.235; total luciferase, % of control: 86.6

How did the screen score LOC642696 (GeneID 642696) #1?
total luciferase, z-score: 0.867; total luciferase, % of control: 99.1

For LOC642696 (GeneID 642696) #2, what was measured?
total luciferase, z-score: 0.429; total luciferase, % of control: 90.4

Which result is listed for LOC642696 (GeneID 642696) #3?
total luciferase, z-score: -0.648; total luciferase, % of control: 69

With VPS37D (GeneID 155382) #1, what was measured?
total luciferase, z-score: -0.346; total luciferase, % of control: 75

What did the screen give for VPS37D (GeneID 155382) #2?
total luciferase, z-score: -2.39; total luciferase, % of control: 34.3

For VPS37D (GeneID 155382) #3, what does the deposit list?
total luciferase, z-score: 1.81; total luciferase, % of control: 118

2 entries from above, reformatted:
{"Gene": "VPS37D (GeneID 155382)", "reagent": 2, "total luciferase, z-score": -2.39, "total luciferase, % of control": 34.3}
{"Gene": "VPS37D (GeneID 155382)", "reagent": 3, "total luciferase, z-score": 1.81, "total luciferase, % of control": 118}
